The other results are listed elsewhere or left out. Further columns of the screen follow, without active or inactive calls. The list favours compounds with an active or inconclusive main result. Potencies come from curve fits of mixed quality, noted in brackets.

The experiment is described as follows: qHTS Assay for Lipid Storage Modulators in Drosophila S3 Cells.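 For cell number change: cells counted by Cell Tracker Red CMTPX staining in the red channel.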 The settings on record: BODIPY lipid droplet fluorescence, 18-24 h; for cell number change: measured here: cell count max response, cells fed with added oleic acid. An outline of the steps:
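Laser-scanning cytometry quantifies lipid droplet accumulation (500–530 nm total intensity; droplet/cell object ratio) in oleic acid-fed (400 uM added) Drosophila S3 cells treated with a concentration series. 20 uM Triacsin C defined 100% inhibition.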
(In general: Quantitative high-throughput screening tests each substance at several concentrations.)

The mark [1] stands for this setting: measured here: lipid fluorescence (Fed channel) AC50, cells fed with added oleic acid.
[2] abbreviates: measured here: cell number channel AC50, cells fed with added oleic acid.

Turning to `CCc1nnc(NC(=O)CCCSc2nc3ccccc3[nH]2)s1`, the cell number change is 40.8%.

In the case of `Cc1cccc(OC(C)C(=O)OCC(=O)Nc2sccc2C(N)=O)c1` (stereo unspecified), the cell number change was 8.34%.

For `CNC(=O)c1csc(Cc2c(Cl)sc3ccc(Cl)cc23)n1`, the cell number change is 5.39%. The AC50 (commonly the midpoint of the concentration-response curve, whichever way the signal moves) under setting [1] was 2.06 µM [rising, full curve, poor fit].

With `COc1ccc(C2NC3=C(CCC3)C3(C#N)C(OC)(OC)N=C(N)C23C#N)cc1` (stereo unspecified), the cell number change was -21%. Besides, the AC50 under setting [1] is 0.164 µM [falling, full curve].

Turning to `COC(=O)[C@H](Cc1ccccc1)NC(=O)C1(OC(C)=O)CC(OC(C)=O)C(OC(C)=O)C(OC(C)=O)C1` (stereo partly specified), the cell number change was -30.6%. Further, under setting [2], the AC50 is 5.8 µM [falling, full curve, poor fit]. Besides, under setting [1], the AC50 was 5.8 µM [falling, full curve].

With `O=C(COC(=O)/C=C/c1cccc(Br)c1)NC1CC1`, the cell number change is 11.7%. Besides, under setting [1], the concentration at half-maximal activity (AC50) is 29.1 µM [rising, single point].

Turning to `c1ccc([C@H]2CC3C[C@@H](c4ccccc4)N2O3)cc1`, the cell number change was -0.856%. In addition, the AC50 under setting [1] is 0.731 µM [rising, single point].

`Cc1cc(=O)n2[nH]cc(-c3ccccc3)c2n1`: the cell number change was found to be 10.1%. The AC50 under setting [1] is 29.1 µM [rising, single point].

Consider `Cc1cccc(NC(=O)CCS(=O)(=O)c2cccc3nonc23)c1C`, for which the cell number change was found to be 6.31%.

As for `CC(CCc1ccccc1)NS(=O)(=O)c1ccc(Cl)c(C(=O)O)c1` (stereo unspecified), the cell number change is 26.5%.

In the case of `COc1cc2c(cc1NC(=O)CCCCCN1C(=O)CCC1=O)oc1ccccc12`, the AC50 under setting [2] was 0.517 µM [rising, full curve].

Turning to `S=C(Nc1ccc(Br)cc1)N1CCn2cccc2C1c1cccnc1` (stereo unspecified), the cell number change was -5.52%. Also, under setting [2], the AC50 is 6.51 µM [rising, partial curve, poor fit].

`CC1CCN(C(=O)CSc2nc(N)cc(N)n2)CC1`: the cell number change stood at 12.4%. Besides, the AC50 under setting [1] is 0.164 µM [falling, full curve].

`Cc1nc(NC(=O)CCC(=O)O)sc1C(=O)N(C)C`: the cell number change is -0.148%. Also, the AC50 under setting [2] is 0.731 µM [falling, single point].

In the case of `COc1ccc(C(=O)CSc2n[nH]c(=O)n2Cc2ccco2)cc1`, the cell number change turned out to be 14.2%. Under setting [1], the AC50 is 6.51 µM [rising, partial curve].

On to `O=S(=O)(NCCc1ccncc1)c1cc(Br)ccc1F`, for which the cell number change worked out at 101%. For the same compound, the AC50 under setting [2] is 20.6 µM [rising, single point]. Further, under setting [1], the AC50 is 18.4 µM [rising, partial curve].

On to `COc1ccccc1CC(=O)NC1CC1`, for which the cell number change is -2.75%. In addition, the AC50 under setting [1] is 6.51 µM [rising, single point].

For the compound `COc1ccccc1N1CCN(C(=O)CSc2ncccc2-c2nc3ccccc3[nH]2)CC1`, the cell number change is -70.1%. Besides, the AC50 under setting [2] was 3.26 µM [falling, partial curve]. Under setting [1], the AC50 was 2.31 µM [rising, single point].

On to `Cc1cc([N+](=O)[O-])nn1CC(=O)N1CCOCC1`, for which the cell number change was 4.75%.

As for `COc1ccc(C(=O)O)c(OC)n1`, the cell number change came out at 36.4%. Also, the AC50 under setting [2] was 0.164 µM [rising, full curve, poor fit]. The AC50 under setting [1] was 0.0116 µM [rising, full curve, poor fit].

Regarding `O=C(Nc1ccc2ccccc2c1)c1cnccn1`, the cell number change was -3.04%. The AC50 under setting [1] was 13 µM [rising, partial curve].

Take `O=C(CN1CCN(c2ncc(C(F)(F)F)cc2Cl)CC1)NC(=O)NCc1ccccc1`: the cell number change was -6.98%. In addition, the half-maximal activity concentration (AC50) under setting [2] was 0.461 µM [rising, full curve, poor fit]. Moreover, under setting [1], the AC50 is 32.6 µM [rising, single point].

Regarding `Cc1[nH]c(C)c(S(=O)(=O)NCCc2ccc(S(N)(=O)=O)cc2)c1C(=O)N1CCCC1`, the cell number change was -1.47%. The AC50 under setting [1] was 29.1 µM [falling, single point].

For `CCC(C(=O)NC1CCCCC1)N(Cc1cccs1)C(=O)CCC(=O)Nc1cc(C)on1` (stereo unspecified), the cell number change stood at 5.24%. Further, the AC50 under setting [1] is 0.517 µM [rising, full curve, poor fit].

Take `COc1ccc(-c2c(C(F)(F)F)nn(C)c2NC(C)=O)cc1`: the cell number change was found to be 38.2%. The AC50 under setting [2] is 8.2 µM [rising, partial curve]. Also, the AC50 under setting [1] was 29.1 µM [rising, single point].

With `O=C1Nc2ccccc2C(O)(C(=O)N2CCCCC2)N1c1ccccc1` (stereo unspecified), the cell number change was -3.71%.

Regarding `CC1Cc2ccccc2N1C1=NS(=O)(=O)c2ccccc21` (stereo unspecified), the cell number change is -6.8%.

On to `CCCCNc1nc(CC(C)=O)ns1`, for which the cell number change is -8.08%. Also, under setting [1], the AC50 was 0.731 µM [falling, full curve].

In the case of `C=CCn1c(SCC(=O)C(C)(C)C)nnc1-c1ccccn1`, the cell number change is 11.7%. Besides, under setting [1], the AC50 is 0.00411 µM [rising, full curve, poor fit].

For the compound `COc1ccc(-c2nnn(CC(=O)Nc3sc4c(c3C#N)CCCC4)n2)cc1`, the cell number change is -36.9%. Further, the AC50 under setting [2] was 0.00461 µM [falling, full curve, poor fit].

For `CC1=Nc2ccccc2/C1=C/c1nc(-c2ccc(C)s2)oc1O`, the cell number change was -9.13%. For the same compound, under setting [2], the AC50 is 0.00411 µM [rising, full curve, poor fit].

On to `CC(NC(N)=O)C(=O)Nc1ccc(Cl)c(S(=O)(=O)Nc2ccc(Cl)cc2)c1` (stereo unspecified), for which the cell number change worked out at 47.5%.

For `CCOC(=O)c1cnc(-n2nc(C)cc2C)nc1Nc1ccc(C)cc1`, under setting [1], the AC50 is 0.461 µM [rising, partial curve, poor fit].

`O=C(CCNC(=O)c1ccc(Cl)cc1)Nc1ccc(Cl)cc1F`: the cell number change was found to be 16.2%. Besides, under setting [1], the AC50 is 29.1 µM [rising, single point].

Consider `O=C(COC(=O)c1cc(S(=O)(=O)N2CCOCC2)ccc1Cl)NCc1ccc2c(c1)OCO2`, for which the cell number change is -3.26%.

For the compound `CC(=O)Nc1ccc(S(=O)(=O)NC2(C(F)(F)F)NC(=O)N(C3CCCC3)C2=O)cc1` (stereo unspecified), the cell number change is -11.4%. Further, the AC50 under setting [1] was 20.6 µM [falling, partial curve, poor fit].

In the case of `COc1ccc(NC(=S)N2CCN(C(c3ccccc3)c3ccccc3)CC2)c(OC)c1`, the cell number change is 16.9%. Moreover, under setting [1], the AC50 was 32.6 µM [rising, single point].

Take `O=C(COC(=O)c1ccccc1OC(F)F)Nc1ccc2[nH]c(=O)[nH]c2c1`: the cell number change is -8.5%.

Consider `CN(C)C(=O)c1cnc(Sc2ncc(C(F)(F)F)cc2Cl)n1C`, for which the cell number change amounted to 17.4%.

For the compound `N#Cc1ccccc1CSc1nnc(Cc2ccccc2)o1`, the cell number change is -44.9%. The AC50 under setting [2] is 3.66 µM [falling, single point].

`C=CCNC(=S)NNC(=O)C(CCC(C)C)CC(C)(C)O` (stereo unspecified): the cell number change was found to be 32.3%. Further, under setting [1], the AC50 was 0.731 µM [falling, full curve].

For the compound `CC(C)Cn1c(SCC(=O)N2CCOCC2)nc2ccccc2c1=O`, the cell number change is 32.3%.
